This is one part of the list.

By UniProt entry, the sequences of proteins in these tests, tags left out.
UniProt Q0JBA9, entry or part of it: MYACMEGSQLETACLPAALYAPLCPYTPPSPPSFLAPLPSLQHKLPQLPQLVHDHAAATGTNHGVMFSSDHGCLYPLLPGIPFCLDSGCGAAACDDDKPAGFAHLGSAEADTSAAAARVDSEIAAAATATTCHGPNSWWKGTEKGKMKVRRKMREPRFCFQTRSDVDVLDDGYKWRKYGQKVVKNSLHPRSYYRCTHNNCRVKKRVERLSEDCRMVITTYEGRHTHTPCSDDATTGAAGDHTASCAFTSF

This assay deals with OsWRKY34 (Oryza sativa, UniProt Q0JBA9 1-250). As to the kind of experiment: protein-binding microarray (RPBM); PBS, 2% BSA, 51.3 ng/ul salmon testes DNA, 50 uM zinc acetate, 200 nM TF, 25 C, 1 h; high values mean tight binding. The conditions noted are these: protein: recombinant; tags: N-terminal polyhistidine and DsRed monomer fusion (pET32a); label: CyDye5-dUTP incorporated in the synthesized complementary strand; 3' TTTTT single-stranded linker to array surface; dsDNA, one strand shown. An outline of the steps:
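Binding signal is defined as the fluorescence intensity of each feature in arbitrary units, read on an Axon 4000B scanner. Transcription factors with N-terminal polyhistidine and DsRed fusions came from E. coli BL21-CodonPlus and were purified on Ni–NTA. They were incubated at 200 nM for 1 h at 25 °C on a custom Agilent array that had been made double-stranded with Cy5-dUTP, with 50 µM zinc acetate present, and the array was washed.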
For the sequence “TATAGCATCTCATTTAACCCGATGTTACCTGTTTTGAGACCGGAGTCACCTAGTGCAG”, the binding signal was 9820 fluorescence intensity (a.u.).
“TCGAGAGGTGGGGAGGGGAGGGGAGCAGAGGGCGGCATCGCGGAGTCACCTAGTGCAG”: the binding signal was 18600 fluorescence intensity (a.u.).
The value for “CTCTATATAAGCCCCACAATGCCCACCACCAGCTTGTCACCGGAGTCACCTAGTGCAG” was 8230 fluorescence intensity (a.u.); that for “ATCCCACATGATATCTGACCGTCACAGACATCGTCTTAACCGGAGTCACCTAGTGCAG” was 8190 fluorescence intensity (a.u.).
In the case of “TTGTTTTAGGTATATGCTCTTTAGTTTGTACTGTGTTCTGCGGAGTCACCTAGTGCAG” it was 8210 fluorescence intensity (a.u.); in that of “AAATTCGAGACGGTTTGGGTGTTTGACTATTTGGGCTGGTCGGAGTCACCTAGTGCAG”, 11800 fluorescence intensity (a.u.); in that of “GCTATACTATATATATTGCAAAATTTGTCCCATGTACATTCGGAGTCACCTAGTGCAG”, 9140 fluorescence intensity (a.u.).
In the case of “AGCTGCTGTCGGAGGGGCTGGGCCTCCCCGCGGGGTACCTCGGAGTCACCTAGTGCAG” it was 10100 fluorescence intensity (a.u.); in that of “CAGCGGCTGCATTGCCTGATCTTGACTGAGATGCTGTTGACGGAGTCACCTAGTGCAG”, 8420 fluorescence intensity (a.u.).
In the case of “GACGGGAGAATGTAGACCGCTCCTCAACTCTGTGCTCGTTCGGAGTCACCTAGTGCAG”, the binding signal was 8320 fluorescence intensity (a.u.).
Regarding “CTGCATTGCCCCGGACTTTCTGCGACCCCTTTTTCCCGACCGGAGTCACCTAGTGCAG”, the binding signal is 8900 fluorescence intensity (a.u.).
The value for “GTGTGTGGGTGGTGATGTACTTTTTTTCATTTTTCTTGGTCGGAGTCACCTAGTGCAG” was 11100 fluorescence intensity (a.u.); that for “CTACACACAAACTTCCAACTTTTCTGTCACATCGTTCCAACGGAGTCACCTAGTGCAG” was 11900 fluorescence intensity (a.u.).
Turning to “TCTAGATATTGTCTTTCTTTTCATACTTATAGCTGCATCACGGAGTCACCTAGTGCAG”, the binding signal was 8090 fluorescence intensity (a.u.).
For the sequence “GTAGCTGTCATATTCGACCTTCATTCCCATCTGCCTCGCACGGAGTCACCTAGTGCAG”, the binding signal was 11500 fluorescence intensity (a.u.).
In the case of “ATATTTTATCATCATCAGCCGATTGCCTTTATATCATCATCGGAGTCACCTAGTGCAG” it was 8720 fluorescence intensity (a.u.).
Take “CTTTTGGATGCCAGCTCACAGCTCATCAATACATCACCATCGGAGTCACCTAGTGCAG”: the binding signal is 8230 fluorescence intensity (a.u.).
The value for “CCTCGAGCCCCGTGCGCCATCCGTCGCGTCGACCATTAAGCGGAGTCACCTAGTGCAG” was 9310 fluorescence intensity (a.u.); that for “AGGATTCTTACATATCATTCACTTCTTCACCAAGTCTTCTCGGAGTCACCTAGTGCAG” was 9860 fluorescence intensity (a.u.); that for “TCCGATTTAAGCTCTCTTGCCCATTTTTTTTTCAGAGTTTCGGAGTCACCTAGTGCAG” was 11900 fluorescence intensity (a.u.).
The value for “CGCGTGATGACTCCCCATCGCGATCCCGACCGTCCGTTTCCGGAGTCACCTAGTGCAG” was 9570 fluorescence intensity (a.u.); that for “GTACTGTTTATATCTAAATTTGTCTTTTTGTTTCTCGATGCGGAGTCACCTAGTGCAG” was 8610 fluorescence intensity (a.u.).
Regarding “AAGCTTGGTCAACCCTCCAGTCCGCCGTAGACCGTAGCGCCGGAGTCACCTAGTGCAG”, the binding signal is 8820 fluorescence intensity (a.u.).
For the sequence “CGGCTGTGAGGTTCTTGATTTGATCTGTGGTTGTTGTTGACGGAGTCACCTAGTGCAG”, the binding signal was 8260 fluorescence intensity (a.u.).
With “CTTTATAGAGGTGTTCAAACGAATTTTAGGGTGGGATCTACGGAGTCACCTAGTGCAG”, the binding signal is 8900 fluorescence intensity (a.u.).
The value for “CCGGCCTATACACTTTTGTGATAGTGAACATGCAGCTTTCCGGAGTCACCTAGTGCAG” was 9780 fluorescence intensity (a.u.).
The value for “GTGGTGACTTCATCAATATCAAGATATACCGTCCAGTCTTCGGAGTCACCTAGTGCAG” was 8580 fluorescence intensity (a.u.); that for “CCAGGTCGCACGCTGATCTCCGCACCCGCCACCCGCAATGCGGAGTCACCTAGTGCAG” was 8370 fluorescence intensity (a.u.); that for “ACTTGTTCTTTTGCTAGTAGAATCACTAATTCAGTATTGTCGGAGTCACCTAGTGCAG” was 8320 fluorescence intensity (a.u.).
As for “ATTTTAGGGGAGGGTTTTACTTAGCAACTTTCATCTTATTCGGAGTCACCTAGTGCAG”, the binding signal is 15800 fluorescence intensity (a.u.).
In the case of “CCTCCCATTGTGTCAAATTGCCCACACACGTACGCGCCATCGGAGTCACCTAGTGCAG” it was 8180 fluorescence intensity (a.u.).
Consider “ATAAACATAAACTTCCAACATTTCCGTCACATCATTCTAACGGAGTCACCTAGTGCAG”, for which the binding signal was 8970 fluorescence intensity (a.u.).
Turning to “GACGACCCACCCCGTCGTGTCATCGCCGCGCGTGCACCAGCGGAGTCACCTAGTGCAG”, the binding signal is 8200 fluorescence intensity (a.u.).
The value for “TTGACATAAATTTTCAACCAACCCGTTGTTTTTGTTTTACCGGAGTCACCTAGTGCAG” was 9250 fluorescence intensity (a.u.); that for “CGCCGTCGCTCCCTGCCTCTCCACCGCGCCGTCGTCCTCGCGGAGTCACCTAGTGCAG” was 10300 fluorescence intensity (a.u.); that for “CCGACAACACCGGCTTCCCTATATATTTTAGCAACTTTATCGGAGTCACCTAGTGCAG” was 8950 fluorescence intensity (a.u.).
Consider “TTTTTTGCCTTACCAACCCCAGTATTCAATTGTTCAAGTCCGGAGTCACCTAGTGCAG”, for which the binding signal was 9620 fluorescence intensity (a.u.).
As for “ATAGGGTGATATATGCTCTGCTCTACCTGCATCTGACCACCGGAGTCACCTAGTGCAG”, the binding signal is 8630 fluorescence intensity (a.u.).
The value for “GCAGACAACTCCGTCGCTGTTACTTCCTCTATGCCAAAACCGGAGTCACCTAGTGCAG” was 9350 fluorescence intensity (a.u.); that for “TTTTGCACTATTCAACCATCTTTCTCCACTTTTGTCTTACCGGAGTCACCTAGTGCAG” was 10600 fluorescence intensity (a.u.).
The value for “AAGTTCATCTCTTATTTTTCTTCCTTTGCATATTTGACCGCGGAGTCACCTAGTGCAG” was 9770 fluorescence intensity (a.u.).
The value for “TCCCTCGCGAAGGTCTTGTTGTCCCCACTGATTCGCCGCTCGGAGTCACCTAGTGCAG” was 9360 fluorescence intensity (a.u.).

These data come from article PMC7819943, “Rice protein-binding microarrays: a tool to detect cis-acting elements near promoter regions in rice”.
